Assay results as given in patent US20160046678A1 (ZYNGENIA, published 2016).
No constants are given. Whether binding was seen depends on the method and setting. Some results given as binding are weak or reduced against the parent protein; the word gives no strength.

T1: TL1A (UniProt O95150)
T1 sequence (looked up): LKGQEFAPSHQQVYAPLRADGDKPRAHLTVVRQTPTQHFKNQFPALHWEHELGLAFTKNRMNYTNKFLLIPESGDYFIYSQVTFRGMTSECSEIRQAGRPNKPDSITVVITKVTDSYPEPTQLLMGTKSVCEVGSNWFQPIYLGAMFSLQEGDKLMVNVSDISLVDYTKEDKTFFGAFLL


The binders below were run against EGFR (UniProt P00533) (assay: peptide screen, Example 48).

binding, binds:
PESWCHTLYWNLQHCLSQE [EGA1010]
YAEHCWLFPSDWICTLLT [EGA1008]
LPEGCWWSVWGRECLLPS [EGA986]
LPEGCHWAIWGRECLLPP [EGA988]
YPEHCWLFPTDWICTLVA [EGA963]
FPDVCYWTVWGRECLLLP [EGA999]
GTDGCWWEVWGRECLLTP [EGA993]
LPEGCWWSPWGRECLLPP [EGA994]
YEEHCWQFPADWICTLLT [EGA972]
DPYGCYWAAWGRECLLLP [EGA985]
LTEPCYWTTWGKECHMPR [EGA995]
YAEHCRQFPTDWICSLMT [EGA975]
YAEHCYNFPSDWICSLLT [EGA970]
LPEGCWWANWGRECLLLP [EGA989]
YEEHCWLFPSDWICTLMP [EGA976]
IPDDCYWTVWGRECLLVP [EGA980]
LPDGCWWSTWGRECLLVP [EGA982]
YAQHCWMFPADWICTLMT [EGA966]
YAMHCSQFPSDWICTLMT [EGA974]
YTKHCQRLPTYKICNLFM [EGA968]
LPEGCYWAIWGKECLLPL [EGA984]
YSEVCWWEVWGRECFLRS [EGA1002]
LPEDCWWATWGRECLLQP [EGA987]
YSEHCWLFPTDWICHLMP [EGA969]
LHDGCWWEVWGRECFVPS [EGA998]
YAEHCWQFPTDWICSLLD [EGA965]
YLAHCWHFPNDWICSLLP [EGA967]
LTDGCYWTIWGRECLLLP [EGA981]
LPEDCWWAQWGRECFLPA [EGA1003]
YAEHCWQFPTDWICSLMT [EGA971]
IPEGCWWAQWGRECILAA [EGA991]
ISDGCFWAVWGRECLLAA [EGA992]
YEEHCWLFPSDWICTLMT [EGA1006]
YAEHCWHFPSDWICTLKE [EGA973]
YAEHCWLFPTDWICNLIP [EGA977]
YAEHCWQFPADWICSLPS [EGA964]
YADHCAHFPTDWICTLMT [EGA962]
YEEHCWLFPTDWICTLVT [EGA1007]
LNDPCYWTTWGKECLLPR [EGA1004]
YEKHCYQFPSDWICSLKT [EGA978]
YEEHCGQFPTDWICTLIS [EGA1005]
LPEGCYWATWGKECLLQP [EGA1011]
HPDGCYWTVWGRECLLPP [EGA1001]
DEAGCWWEIWGRECILSP [EGA996]

The binders below were run against T1, TL1A (assay: peptide selection, Example 48).

binding, binds:
RWDVCWDYHADKLFFCNEDL [TLA121]
RDDVCWDYNTDKLYFCGSNI [TLA126]
DWDVCWDLLEDRLYYCEDPM [TLA129]
EYDHCWDVSRAKLELCWEHN [TLA130]
DDSMCAWWDEWHECEHHS [TLA38]
EYMYCYDDWYDC [TLA39]
DYDVCWDLDFDRLYYCHPAE [TLA120]
KVEYCYDDWHQCKQVQ [TLA37]
EYAVCWDEAQQKLVWCKDLN [TLA131]
LLGDCFAGFDNIWCEFLD [TLA26]
QTFWCYDDWHECSGKP [TLA30]
EYEVCWDVHVHRLVFCNVPV [TLA123]
DYDVCWDYDVDRLYYCDFPV [TLA127]
KTDVCWDLLLDKLYFCDIDT [TLA125]
NYDVCWDVSEDRLYYCDAPR [TLA128]
DYDVCWDVDLDRLYYCEAPM [TLA122]
KCNFNPWKAACG [TLA29]
LNHSCWWWDEWEECPHNV [TLA34]
